Reference: the supplement of paper PMC6078165
Values are relative to the signal before dosing, not to a vehicle control; the signal also falls without drug.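 Fibroblast labels name human fibroblasts: mostly primary ones from tissues such as uterus (C12385, HUF), lung (H6013), bone (Hs27A), adrenal (HADF) and skin (WS1), plus mammary HMF and breast cancer-associated Hs343T. The cancer cells are basal-like or mesenchymal-like triple-negative breast cancer lines. The paper calls a changed response a hit when it shifts by more than 3x the replicate standard deviation. The tissue of the other fibroblasts is not given here.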

Test system: MDAMB231
Test: relative JC-1 red fluorescence (viability) vs pre-drug, coculture with fibroblast (fraction); higher = more viable cancer cells
Experimental: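 JC-1 labelled TNBC cells cocultured 1:1 (1,500 cells each) with CellTrace Violet stained primary or stromal fibroblasts in 384-well plates in FluoroBrite medium, treated with one of 42 anticancer drugs at 0.1, 1, 10 or 100 uM. JC-1 red fluorescence (mitochondrial integrity in cancer cells only) was read by plate reader every 8 h for 72 h. Values are normalised to each well's pre-drug value. The stock of one drug was tenfold lower, so its dose labels may be too high.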

CC/C(=C(\c1ccccc1)c1ccc(OCCN(C)C)cc1)c1ccccc1 [Tamoxifen]
relative JC-1 red fluorescence
Settings | 8 h | 16 h | 24 h | 32 h | 40 h | 48 h | 56 h | 64 h | 72 h
1 µM, coculture fibroblast: C12385 | – | – | – | – | – | 0.5934 | 0.5535 | 0.5557 | 0.538
1 µM, coculture fibroblast: H6013 | – | – | – | – | – | 0.696 | 0.689 | 0.657 | 0.61
1 µM, coculture fibroblast: H6019 | – | – | – | – | – | 0.617 | 0.564 | 0.549 | 0.506
1 µM, coculture fibroblast: H6076 | – | – | – | – | – | 0.685 | 0.665 | 0.647 | 0.637
1 µM, coculture fibroblast: H6231 | – | – | – | – | – | 0.687 | 0.652 | 0.636 | 0.611
1 µM, coculture fibroblast: HADF | – | – | – | – | – | 0.6759 | 0.652 | 0.6368 | 0.593
1 µM, coculture fibroblast: HCFa | – | – | – | – | – | 0.709 | 0.676 | 0.65 | 0.599
1 µM, coculture fibroblast: HCPF | – | – | – | – | – | 0.668 | 0.643 | 0.613 | 0.594
1 µM, coculture fibroblast: HHSteC | – | – | – | – | 0.8105 | 0.7807 | 0.73849 | 0.71114 | 0.6712
1 µM, coculture fibroblast: HMF | – | – | – | – | 0.701 | 0.662 | 0.638 | 0.614 | 0.594
1 µM, coculture fibroblast: HPFa | – | – | – | – | 0.8155 | 0.7816 | 0.722 | 0.699 | 0.64
1 µM, coculture fibroblast: HUF | – | – | – | – | 0.641 | 0.612 | 0.559 | 0.543 | 0.521
1 µM, coculture fibroblast: Hs5 | – | – | – | – | 0.729 | 0.674 | 0.637 | 0.606 | 0.577
1 µM, coculture fibroblast: Hs27A | – | – | – | – | 0.721 | 0.654 | 0.649 | 0.63 | 0.573
1 µM, coculture fibroblast: Hs343T | – | – | – | – | 0.685 | 0.639 | 0.59 | 0.568 | 0.538
1 µM, coculture fibroblast: WS1 | – | – | – | – | 0.557 | 0.516 | 0.469 | 0.468 | 0.444
10 µM, coculture fibroblast: C12385 | 0.737 | 0.789 | 0.638 | 0.778 | 0.768 | 0.755 | 0.746 | 0.75 | 0.751
10 µM, coculture fibroblast: H6013 | 0.952 | 0.935 | 0.93 | 0.938 | 0.9162 | 0.87 | 0.908 | 0.9007 | 0.8813
10 µM, coculture fibroblast: H6019 | 0.755 | 0.746 | 0.666 | 0.721 | 0.69 | 0.669 | 0.652 | 0.616 | 0.591
10 µM, coculture fibroblast: H6076 | 0.885 | 0.847 | 0.815 | 0.873 | 0.947 | 0.895 | 0.905 | 0.8 | 0.891
10 µM, coculture fibroblast: H6231 | 0.839 | 0.812 | 0.872 | 0.895 | 0.836 | 0.917 | 0.862 | 0.825 | 0.902
10 µM, coculture fibroblast: HADF | 0.919 | 0.9188 | 0.8982 | 0.896 | 0.881 | 0.815 | 0.862 | 0.869 | 0.831
10 µM, coculture fibroblast: HCFa | 0.945 | 0.937 | 0.943 | 0.964 | 0.967 | 0.922 | 0.944 | 0.927 | 0.908
10 µM, coculture fibroblast: HCPF | 0.766 | 0.804 | 0.788 | 0.837 | 0.787 | 0.853 | 0.765 | 0.862 | 0.858
10 µM, coculture fibroblast: HHSteC | 0.9546 | 0.968 | 0.974 | 0.967 | 0.96 | 0.939 | 0.939 | 0.955 | 0.9555
10 µM, coculture fibroblast: HMF | 0.754 | 0.835 | 0.835 | 0.841 | 0.853 | 0.757 | 0.855 | 0.9812 | 0.969
10 µM, coculture fibroblast: HPFa | 0.976 | 0.9845 | 0.9584 | 0.967 | 0.981 | 0.9539 | 0.9553 | 0.9564 | 0.941
10 µM, coculture fibroblast: HUF | 0.891 | 0.861 | 0.83 | 0.795 | 0.758 | 0.743 | 0.702 | 0.687 | 0.648
10 µM, coculture fibroblast: Hs5 | 0.859 | 0.797 | 0.704 | 0.799 | 0.9963 | 0.97 | 0.938 | 0.929 | 0.922
10 µM, coculture fibroblast: Hs27A | 0.9458 | 0.946 | 0.9462 | 0.9496 | 0.927 | 0.803 | 0.886 | 0.884 | 0.841
10 µM, coculture fibroblast: Hs343T | 0.899 | 0.739 | 0.907 | 0.918 | 0.813 | 0.731 | 0.862 | 0.958 | 0.946
10 µM, coculture fibroblast: WS1 | 0.765 | 0.776 | 0.684 | 0.78 | 0.796 | 0.788 | 0.781 | 0.782 | 0.758
